According to patent US20130171063A1 (LUDWIG INSTITUTE FOR CANCER RESEARCH, published 2013):
No constants are given. Whether binding was seen depends on the method and setting. Binding calls can cover weak binding; strength is not graded here. Values belong to the binder of their own block, whether it stands above or below them.

Amino acid sequences for entries named in this document (tags omitted). A change or cut given only in a name is not applied to a line headed by its entry.
UniProt P08581: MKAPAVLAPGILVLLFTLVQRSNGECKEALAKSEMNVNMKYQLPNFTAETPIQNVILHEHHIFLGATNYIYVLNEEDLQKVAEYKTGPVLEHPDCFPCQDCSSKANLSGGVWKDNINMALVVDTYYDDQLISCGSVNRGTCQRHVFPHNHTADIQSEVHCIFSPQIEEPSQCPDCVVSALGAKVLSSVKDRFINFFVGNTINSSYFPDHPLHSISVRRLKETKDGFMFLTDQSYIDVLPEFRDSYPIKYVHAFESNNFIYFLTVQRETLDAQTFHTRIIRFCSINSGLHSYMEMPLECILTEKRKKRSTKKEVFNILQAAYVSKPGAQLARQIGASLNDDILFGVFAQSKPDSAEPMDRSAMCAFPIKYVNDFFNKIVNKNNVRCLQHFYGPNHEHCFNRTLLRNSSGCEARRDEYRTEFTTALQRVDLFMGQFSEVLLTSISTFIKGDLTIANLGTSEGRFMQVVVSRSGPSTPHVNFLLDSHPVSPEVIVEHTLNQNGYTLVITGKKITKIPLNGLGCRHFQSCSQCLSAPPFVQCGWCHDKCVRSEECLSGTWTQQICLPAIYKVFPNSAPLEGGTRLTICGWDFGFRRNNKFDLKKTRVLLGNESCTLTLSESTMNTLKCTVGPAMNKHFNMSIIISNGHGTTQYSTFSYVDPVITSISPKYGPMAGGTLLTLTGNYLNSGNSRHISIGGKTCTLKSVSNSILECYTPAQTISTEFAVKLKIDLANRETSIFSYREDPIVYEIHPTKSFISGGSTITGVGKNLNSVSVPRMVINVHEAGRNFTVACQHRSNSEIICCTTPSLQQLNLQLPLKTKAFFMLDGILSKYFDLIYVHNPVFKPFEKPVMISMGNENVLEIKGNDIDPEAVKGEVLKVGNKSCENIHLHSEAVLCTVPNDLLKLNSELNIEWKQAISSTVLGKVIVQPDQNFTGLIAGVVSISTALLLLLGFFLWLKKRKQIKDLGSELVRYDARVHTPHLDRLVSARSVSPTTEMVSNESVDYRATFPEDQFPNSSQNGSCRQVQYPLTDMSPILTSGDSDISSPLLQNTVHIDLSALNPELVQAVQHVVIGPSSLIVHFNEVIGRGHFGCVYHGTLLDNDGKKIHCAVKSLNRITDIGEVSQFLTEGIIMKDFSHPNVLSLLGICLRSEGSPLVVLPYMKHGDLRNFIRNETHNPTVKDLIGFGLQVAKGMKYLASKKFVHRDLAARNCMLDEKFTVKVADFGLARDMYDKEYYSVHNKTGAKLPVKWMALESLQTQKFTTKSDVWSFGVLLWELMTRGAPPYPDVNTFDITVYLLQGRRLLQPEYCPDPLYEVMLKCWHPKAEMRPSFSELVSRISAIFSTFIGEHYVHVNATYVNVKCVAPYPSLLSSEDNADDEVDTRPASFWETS

Legend:
[1] = biological target: processed c-Met (disulphide linked alpha/beta heterodimer) (human) (UniProt P08581); test: immunoblot of c-Met immunoprecipitated from A549 cells with LMH 85, probed with LMH 87
[2] = biological target: processed c-Met (disulphide linked alpha/beta heterodimer) (human) (UniProt P08581); test: immunoprecipitation from A549 cells, western blot with 25H2 under reducing conditions
[3] = biological target: processed c-Met (disulphide linked alpha/beta heterodimer) (human) (UniProt P08581); test: immunoprecipitation from A549 cells, reducing blot with 25H2

- binding [1]: binds
B1: antibody LMH 87 (antibody, V domains shown)
VH: QVQLQQSGPELVKSGASVKMSCKASGNTLKDDHVHWVKQRPGQGLEWIGWIYPGGGRTRYNEKFKGKTTLTADKPSSTVNMLLSSLTSEDSAIYFCTNLVFDVWGAGTTVTVSS
VL: DIVMTQAAPSVPVTPGESVSISCRSSKSLLHSNGNTYLYWFLQRPGQSPQVLIYRMSNLASGVPDRFSGSGSGTAFTLRIRRVEAEDVGVYYCMQNLEYPFTFGGGTKLEIK
notes: Mouse monoclonal antibody from a hybridoma

- binding [2]: binds
- binding [3]: binds
B2: antibody LMH 85 (antibody, V domains shown)
VH: QVQLQQSGAELAKPGASVKMSCKASGYTFIIYWIHWIKQRPGQGLEWIGYINPSNDYTEYNQKFKDKATLTADKSSNTAFMQLSSLTSEDSAVYYCARDSYDYDDGAYAMDYWGQGTSVTVSS
VL: QIVLSQSPAILSASPGEKVTMTCRASSGVNYMHWYQQKPGSSPKPWIYATSNLASGVPARFSGSGSGTSYSLTISRVEAEDAATYYCQQWISHPFTFGSGTKLEIK
notes: as for B1
